Among the data in PubChem BioAssay AID434987 (Southern Research Specialized Biocontainment Screening …, 2010) are growth inhibition values, retold here.

The other results are listed elsewhere or left out. Potency and affinity values are given separately. Entries without a call are filed as inconclusive in the source.

The assay is described as follows: dose response, H37Rv, with and without meropenem (AID 434987). Particulars: M. tuberculosis H37Rv growth inhibition with meropenem; at 100 µM (top of the series) unless noted.
`N#Cc1cc(Oc2cccc3cccnc23)c(-n2nnc3ccccc32)cc1C#N`: the growth inhibition stood at 68.3%. Next, `Cc1ccc(C(=O)c2sc3c(c2N)c(=O)[nH]c(=O)n3CCc2ccccc2)cc1`: 42.5%.

`c1cn(CCCNC2CCCCCCC2)cn1`: the growth inhibition was determined as 7.66%. Next, `Cc1ccc(S(=O)(=O)n2cc(-c3ccccc3)c(N)n2)cc1`: 50.8% [at 12.5 µM]. Next, `Cc1cc(C)c(O)c(-c2cc(C(=O)NCc3ccccc3)[nH]n2)c1`: 37.4%; `CCc1cccc2c(C(=O)COC(=O)/C=C/c3ccc(O)c(OC)c3)c[nH]c12`: 75.7%. As for `Cc1cc(SCC(=O)c2ccccc2)n2ncc(-c3ccccc3)c2n1`, the figure is 7.48%; as for `CCN1C(=O)C(O)(CC(=O)c2ccc(-n3cccc3)cc2)c2ccccc21` (stereo unspecified), -14%; as for `CCN(CC)c1ccc(S(=O)(=O)N2CCOCC2)cc1NC(=O)CSc1cccc[n+]1[O-]`, 63.6%.

As for `Cc1cc(NC(=O)CCS(=O)(=O)c2nc(-c3ccccc3)cc(C(F)(F)F)n2)no1`, the growth inhibition came out at 1.54%. Next, `Cc1cc(Cl)ccc1OC(C)C(=O)NCCCCc1ccccc1` (stereo unspecified): 52.5%.
